PMC11525194
These are yes or no findings as the source states them, for the method shown. Binding calls can cover weak binding; strength is not graded here.

Key:
FREE1 (A. thaliana) = biological target: T1, FREE1 (A. thaliana) (UniProt Q9ASS2); assay: two-hybrid; Matchmaker Gold Y2H system, constructs co-transformed pairwise into yeast strain AH109; growth on SD/−Trp−Leu−His−Ade with 5 mM 3-AT
T1 sequence: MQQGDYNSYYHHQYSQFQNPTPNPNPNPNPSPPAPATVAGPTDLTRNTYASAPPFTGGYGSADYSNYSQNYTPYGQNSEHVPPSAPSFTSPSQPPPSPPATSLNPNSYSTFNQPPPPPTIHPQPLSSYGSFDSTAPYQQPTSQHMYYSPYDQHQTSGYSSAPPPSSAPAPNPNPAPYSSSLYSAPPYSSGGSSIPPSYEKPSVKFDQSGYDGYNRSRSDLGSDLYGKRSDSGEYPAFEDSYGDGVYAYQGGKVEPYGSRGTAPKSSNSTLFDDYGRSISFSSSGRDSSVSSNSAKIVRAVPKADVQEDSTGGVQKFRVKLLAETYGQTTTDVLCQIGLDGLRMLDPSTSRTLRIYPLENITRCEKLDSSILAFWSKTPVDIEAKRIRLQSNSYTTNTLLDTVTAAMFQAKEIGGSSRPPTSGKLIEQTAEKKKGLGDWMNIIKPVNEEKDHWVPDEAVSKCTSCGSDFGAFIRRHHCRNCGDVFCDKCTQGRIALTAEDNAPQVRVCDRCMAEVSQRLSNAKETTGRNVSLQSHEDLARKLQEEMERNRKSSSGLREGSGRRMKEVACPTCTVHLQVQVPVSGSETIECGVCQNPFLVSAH

[1] = biological target: T2, FREE1 (purified, condensing) (A. thaliana) (UniProt Q9ASS2); assay: membrane flotation assay; proteins (100 nM) incubated 5 min at room temperature with PI3P-containing SUVs, floated on an OptiPrep gradient (100,000g, 2 h); membrane-bound VPS23 in the top fraction by immunoblot, with or without condensates of FREE1 variants; both purified
T2 sequence: T1 sequence

| Substance | binding (FREE1 (A. thaliana)) | binding [1] |
| --- | --- | --- |
| VPS23A (A. thaliana) | binds |  |
| VPS23A (mCherry labelled, purified) (A. thaliana) |  | binds |
